This is an account of results in publication PMC7819943, “Rice protein-binding microarrays: a tool to detect cis-acting elements near promoter regions in rice”.

Chains of the proteins cited; added tags and fusions are not shown.
UniProt Q0JBA9, entry or part of it: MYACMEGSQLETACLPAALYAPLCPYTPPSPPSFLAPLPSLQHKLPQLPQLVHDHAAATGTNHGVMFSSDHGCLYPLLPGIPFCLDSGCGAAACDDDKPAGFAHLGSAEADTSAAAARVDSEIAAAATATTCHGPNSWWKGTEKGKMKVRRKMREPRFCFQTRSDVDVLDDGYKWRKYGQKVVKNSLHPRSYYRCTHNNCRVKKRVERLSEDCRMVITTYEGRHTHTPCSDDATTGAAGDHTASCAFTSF

The other results are listed elsewhere or left out.

The target of the test is OsWRKY34 (Oryza sativa, UniProt Q0JBA9 1-250). The experiment in a line: protein-binding microarray (RPBM); PBS, 2% BSA, 51.3 ng/ul salmon testes DNA, 50 uM zinc acetate, 200 nM TF, 25 C, 1 h; high values mean tight binding. Conditions: protein: recombinant; tags: N-terminal polyhistidine and DsRed monomer fusion (pET32a); label: CyDye5-dUTP incorporated in the synthesized complementary strand; 3' TTTTT single-stranded linker to array surface; dsDNA, one strand shown. The gist of the method: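 A custom Agilent array was converted to double-stranded form by primer extension with Cy5-dUTP and blocked with 2% BSA. Protein at 200 nM in PBS with 2% BSA, salmon testes DNA and 50 µM zinc acetate was applied for 1 h at 25 °C, followed by washing. The proteins were polyhistidine–DsRed N-terminal fusions of transcription factors, expressed in E. coli BL21-CodonPlus and Ni–NTA-purified. The binding signal is per-feature fluorescence intensity (arbitrary units) from an Axon 4000B scanner.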
As for “TGTCGTTGCCGTTCCAAGTGCGCGGCGTGGTCTCCGATGCCGGAGTCACCTAGTGCAG”, the binding signal was 8890 fluorescence intensity (a.u.).

On to “TATATGCCTACTTTGTGTCCCTTACTTTGTCTGTGTAAACCGGAGTCACCTAGTGCAG”, for which the binding signal was 9440 fluorescence intensity (a.u.).

For “GGGCATGTATTGTGGATTATTTTGTGAATGATTTGCAGATCGGAGTCACCTAGTGCAG”, the binding signal is 10600 fluorescence intensity (a.u.).

Consider “TCCACCTTTTCATCAATATAGTCATGCATTAATACAGTCACGGAGTCACCTAGTGCAG”, for which the binding signal is 8670 fluorescence intensity (a.u.).

As to “ATACCAGTATTATTTTACCACGCCACTTTGTCATGGCAACCGGAGTCACCTAGTGCAG”, the binding signal is 10400 fluorescence intensity (a.u.).

As for “TAAACATATATTAAAAAGTCAACGGTGTCAAATATGTTGACGGAGTCACCTAGTGCAG”, the binding signal is 11900 fluorescence intensity (a.u.).

With “CCATTAGTAAGTTCTCTCGTGGCCCAATACTCTCTTGATGCGGAGTCACCTAGTGCAG”, the binding signal was 8840 fluorescence intensity (a.u.).

For “CTTTGTTTTTTACTCACTCCTTGAGTGGGCCGGCCTTAATCGGAGTCACCTAGTGCAG”, the binding signal is 9690 fluorescence intensity (a.u.).

“CCCGTCGCGTCACTGCCTCTCGCGACTGCATTTAAATTCACGGAGTCACCTAGTGCAG”: the binding signal is 9040 fluorescence intensity (a.u.).

With “GTTGGTGGGTGCAGGGGTGCGACGCGTCGGTGCTGATCGACGGAGTCACCTAGTGCAG”, the binding signal was 9160 fluorescence intensity (a.u.).

Consider “TTTGGCACACCTCTCTAACACCTACTCTTCCAGCTTTTAACGGAGTCACCTAGTGCAG”, for which the binding signal is 8160 fluorescence intensity (a.u.).

On to “GGTTGGCGCGGCCGACCCACCGTCCCACTCCCACATGCCACGGAGTCACCTAGTGCAG”, for which the binding signal was 9220 fluorescence intensity (a.u.).

Take “CCGTCGTCTTCGTTCCAGAGATCCTCGGCGCCGGGCAAGACGGAGTCACCTAGTGCAG”: the binding signal was 8520 fluorescence intensity (a.u.).

For the sequence “ATAATGTGGTTGTTTCCGAAGGTGAAGGTTAGGCATATATCGGAGTCACCTAGTGCAG”, the binding signal was 8840 fluorescence intensity (a.u.).

As for “AAACAATTTAGTCAGGTTCTTGGATTCATTTCTCATTATTCGGAGTCACCTAGTGCAG”, the binding signal is 10400 fluorescence intensity (a.u.).

As to “TCTTTTTTTTTTTCATTATTGTTTGAATATTGATTTCACACGGAGTCACCTAGTGCAG”, the binding signal is 8780 fluorescence intensity (a.u.).

“TTCCCCACGTACCTCTCCATCTCGTCCAGCTTGTAGTTGTCGGAGTCACCTAGTGCAG”: the binding signal was 8790 fluorescence intensity (a.u.).

For “GATTGTATATGCCTGATAGGACTAGTTAGTGTGTTTTCTTCGGAGTCACCTAGTGCAG”, the binding signal is 9220 fluorescence intensity (a.u.).

Turning to “TTTCATTATACATATAGTTTTACATATTTCACAAAATTTTCGGAGTCACCTAGTGCAG”, the binding signal is 8770 fluorescence intensity (a.u.).

Consider “CACCCGGCCAGCCACACACACACAGAAACAGCTCGAGATCCGGAGTCACCTAGTGCAG”, for which the binding signal is 8510 fluorescence intensity (a.u.).

“CTGGCCGCTATTTTATCTAATGTCAATTCTCCTATATCTACGGAGTCACCTAGTGCAG”: the binding signal is 11000 fluorescence intensity (a.u.).

Regarding “CCCACGCGTTCCACCCTGATCCTTTGCACTTCCGCGACCTCGGAGTCACCTAGTGCAG”, the binding signal is 10800 fluorescence intensity (a.u.).

Turning to “GCCAAGCCTTTTTCTTCTACTCTTTTTGGCATGGAACTCACGGAGTCACCTAGTGCAG”, the binding signal was 8350 fluorescence intensity (a.u.).

In the case of “GGACGGTTGATTCTCCTGCTTGTCTCGCTCGACCGCCGACCGGAGTCACCTAGTGCAG”, the binding signal is 8450 fluorescence intensity (a.u.).

Take “TCATCCGATTCCTATGTTTTTCCTGCGCTCCAATCAAACACGGAGTCACCTAGTGCAG”: the binding signal is 12000 fluorescence intensity (a.u.).

In the case of “GGCGCTGCAGCACGTACGTGGTTGGTTGGTTGGTTGGTTGCGGAGTCACCTAGTGCAG”, the binding signal is 15300 fluorescence intensity (a.u.).

In the case of “GTCTTTATCCAACATGACAGCTACTTCCTCCGTTTCATAACGGAGTCACCTAGTGCAG”, the binding signal was 8070 fluorescence intensity (a.u.).

Consider “CATGTTTTACGTAAATTGATCAATATTGTGTAGCATCATACGGAGTCACCTAGTGCAG”, for which the binding signal was 8100 fluorescence intensity (a.u.).

For “GGGTTCACCACCAAACTCGCCACCTATAAACGCTCCTCGCCGGAGTCACCTAGTGCAG”, the binding signal was 9030 fluorescence intensity (a.u.).

For “CTCCGCCGCCTCCCGTATAACTGCGCCTTCGTCTCCGGCCCGGAGTCACCTAGTGCAG”, the binding signal was 11100 fluorescence intensity (a.u.).

For “ACTGAACTGAGAACTGTCCCACCATCATTGTCGCCAGAATCGGAGTCACCTAGTGCAG”, the binding signal is 9350 fluorescence intensity (a.u.).

With “TTCCCCTTCTACGCTCTCGCATTTGCCATTTCTTTTTTCGCGGAGTCACCTAGTGCAG”, the binding signal is 8110 fluorescence intensity (a.u.).

For “CTCCTACTGTATTTCTCTACAAGATTGACCACCTTAATACCGGAGTCACCTAGTGCAG”, the binding signal was 8600 fluorescence intensity (a.u.).

Regarding “ACAACAAATACCTCGATCTCGATCTGTTACTTTCTCGTGACGGAGTCACCTAGTGCAG”, the binding signal was 8300 fluorescence intensity (a.u.).

Regarding “GATTGTCGTCCTCTTCGGCTCCCATACCGCCGACAACACCCGGAGTCACCTAGTGCAG”, the binding signal is 8130 fluorescence intensity (a.u.).

On to “GTGTGGGTGGCAGGGTGTGTTGAGGAGGTGCCCGCGTTGCCGGAGTCACCTAGTGCAG”, for which the binding signal is 10300 fluorescence intensity (a.u.).

As to “TTTACGACCAACTGCAAATTCGATCTCCGTCCATCGATATCGGAGTCACCTAGTGCAG”, the binding signal was 9180 fluorescence intensity (a.u.).

As to “TTATAATTATTTGTGTTGCAATGTATGTTTTGTTTATATACGGAGTCACCTAGTGCAG”, the binding signal was 8540 fluorescence intensity (a.u.).

Turning to “ATTTTTTTCCTTTCAGTGCTTTCACAGCTTCATTTTGCAACGGAGTCACCTAGTGCAG”, the binding signal was 8050 fluorescence intensity (a.u.).

Consider “GCAACTGATAGACTAACTTGTCCGGTCCTGTTTTGGAATCCGGAGTCACCTAGTGCAG”, for which the binding signal is 10200 fluorescence intensity (a.u.).

In the case of “ACCATGAGGTCTACCCACCTGCGCCCCTACCGCTCAATTCCGGAGTCACCTAGTGCAG”, the binding signal was 8320 fluorescence intensity (a.u.).

Turning to “GCACGTCCACCAACAAATATTTGTCTTGTTCATCTGTCCTCGGAGTCACCTAGTGCAG”, the binding signal was 13500 fluorescence intensity (a.u.).
